Data taken from paper PMC7515897.

The chains behind the UniProt entries cited, without tags or fusion partners. Residues count along the entry.
UniProt P21333: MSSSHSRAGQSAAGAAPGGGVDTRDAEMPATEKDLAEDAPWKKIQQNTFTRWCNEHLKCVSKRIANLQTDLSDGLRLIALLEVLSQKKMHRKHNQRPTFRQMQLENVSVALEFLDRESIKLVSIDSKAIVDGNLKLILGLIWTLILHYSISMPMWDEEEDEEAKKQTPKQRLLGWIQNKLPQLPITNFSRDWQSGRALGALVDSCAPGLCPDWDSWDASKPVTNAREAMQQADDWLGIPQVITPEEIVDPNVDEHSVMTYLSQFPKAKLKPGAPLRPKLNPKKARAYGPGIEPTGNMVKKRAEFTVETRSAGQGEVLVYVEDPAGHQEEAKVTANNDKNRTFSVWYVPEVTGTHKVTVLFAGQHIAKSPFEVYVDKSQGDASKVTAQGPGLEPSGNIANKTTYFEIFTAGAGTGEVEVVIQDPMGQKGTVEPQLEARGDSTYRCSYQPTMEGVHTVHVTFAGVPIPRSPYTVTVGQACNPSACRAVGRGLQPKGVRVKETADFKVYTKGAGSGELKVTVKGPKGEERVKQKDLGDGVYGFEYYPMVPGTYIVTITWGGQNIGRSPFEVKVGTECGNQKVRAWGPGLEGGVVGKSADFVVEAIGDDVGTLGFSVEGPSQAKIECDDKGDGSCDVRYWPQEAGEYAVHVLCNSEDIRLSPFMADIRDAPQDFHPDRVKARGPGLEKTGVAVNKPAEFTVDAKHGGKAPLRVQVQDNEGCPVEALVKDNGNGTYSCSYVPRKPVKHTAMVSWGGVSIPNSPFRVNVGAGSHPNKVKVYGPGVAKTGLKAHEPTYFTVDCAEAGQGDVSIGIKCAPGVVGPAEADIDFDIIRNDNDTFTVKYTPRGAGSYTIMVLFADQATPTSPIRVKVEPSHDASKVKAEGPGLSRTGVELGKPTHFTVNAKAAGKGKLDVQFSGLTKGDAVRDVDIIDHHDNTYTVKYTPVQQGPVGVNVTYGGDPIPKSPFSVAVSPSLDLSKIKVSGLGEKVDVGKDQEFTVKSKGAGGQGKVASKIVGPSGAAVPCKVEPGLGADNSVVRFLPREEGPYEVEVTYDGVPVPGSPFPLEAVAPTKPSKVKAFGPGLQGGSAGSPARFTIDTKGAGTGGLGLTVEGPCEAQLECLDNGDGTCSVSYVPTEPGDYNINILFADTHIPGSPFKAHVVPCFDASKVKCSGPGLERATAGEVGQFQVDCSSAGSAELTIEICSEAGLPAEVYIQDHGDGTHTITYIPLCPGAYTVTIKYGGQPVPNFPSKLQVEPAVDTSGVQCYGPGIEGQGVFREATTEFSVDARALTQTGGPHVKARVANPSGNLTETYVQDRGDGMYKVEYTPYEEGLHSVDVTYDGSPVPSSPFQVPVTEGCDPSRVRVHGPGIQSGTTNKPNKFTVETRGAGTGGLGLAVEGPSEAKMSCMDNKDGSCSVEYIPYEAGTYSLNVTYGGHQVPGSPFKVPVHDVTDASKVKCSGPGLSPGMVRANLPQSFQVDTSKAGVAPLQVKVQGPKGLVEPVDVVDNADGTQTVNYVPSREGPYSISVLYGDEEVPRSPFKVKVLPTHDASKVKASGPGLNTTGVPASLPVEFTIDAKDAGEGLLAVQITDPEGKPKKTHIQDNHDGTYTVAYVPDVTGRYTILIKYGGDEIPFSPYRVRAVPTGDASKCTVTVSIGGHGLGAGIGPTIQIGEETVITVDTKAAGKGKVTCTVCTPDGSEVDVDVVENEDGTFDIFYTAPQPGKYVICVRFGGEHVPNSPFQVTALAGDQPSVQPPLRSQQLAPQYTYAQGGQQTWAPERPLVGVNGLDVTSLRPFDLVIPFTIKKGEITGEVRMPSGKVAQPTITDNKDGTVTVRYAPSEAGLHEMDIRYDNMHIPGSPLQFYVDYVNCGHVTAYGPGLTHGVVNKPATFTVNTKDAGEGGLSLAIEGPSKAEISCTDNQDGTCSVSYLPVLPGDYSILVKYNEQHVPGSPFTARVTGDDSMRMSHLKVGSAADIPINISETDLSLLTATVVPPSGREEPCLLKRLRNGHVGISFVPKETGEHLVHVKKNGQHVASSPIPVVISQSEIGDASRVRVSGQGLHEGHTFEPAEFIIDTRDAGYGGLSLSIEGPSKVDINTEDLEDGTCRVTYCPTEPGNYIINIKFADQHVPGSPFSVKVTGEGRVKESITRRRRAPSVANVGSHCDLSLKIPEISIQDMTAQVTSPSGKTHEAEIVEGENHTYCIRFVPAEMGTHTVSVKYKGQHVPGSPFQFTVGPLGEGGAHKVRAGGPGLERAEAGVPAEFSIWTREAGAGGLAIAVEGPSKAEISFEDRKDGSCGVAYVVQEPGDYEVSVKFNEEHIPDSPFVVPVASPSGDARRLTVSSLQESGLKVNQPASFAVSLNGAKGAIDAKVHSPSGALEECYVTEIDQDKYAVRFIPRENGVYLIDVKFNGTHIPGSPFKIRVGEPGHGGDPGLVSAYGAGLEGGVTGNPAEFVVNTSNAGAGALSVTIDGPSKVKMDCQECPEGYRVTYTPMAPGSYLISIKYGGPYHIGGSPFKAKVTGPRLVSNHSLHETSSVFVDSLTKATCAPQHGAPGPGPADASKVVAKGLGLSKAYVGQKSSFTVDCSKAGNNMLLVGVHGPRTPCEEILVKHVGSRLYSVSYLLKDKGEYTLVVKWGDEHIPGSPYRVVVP
UniProt P02545, residues 1-646: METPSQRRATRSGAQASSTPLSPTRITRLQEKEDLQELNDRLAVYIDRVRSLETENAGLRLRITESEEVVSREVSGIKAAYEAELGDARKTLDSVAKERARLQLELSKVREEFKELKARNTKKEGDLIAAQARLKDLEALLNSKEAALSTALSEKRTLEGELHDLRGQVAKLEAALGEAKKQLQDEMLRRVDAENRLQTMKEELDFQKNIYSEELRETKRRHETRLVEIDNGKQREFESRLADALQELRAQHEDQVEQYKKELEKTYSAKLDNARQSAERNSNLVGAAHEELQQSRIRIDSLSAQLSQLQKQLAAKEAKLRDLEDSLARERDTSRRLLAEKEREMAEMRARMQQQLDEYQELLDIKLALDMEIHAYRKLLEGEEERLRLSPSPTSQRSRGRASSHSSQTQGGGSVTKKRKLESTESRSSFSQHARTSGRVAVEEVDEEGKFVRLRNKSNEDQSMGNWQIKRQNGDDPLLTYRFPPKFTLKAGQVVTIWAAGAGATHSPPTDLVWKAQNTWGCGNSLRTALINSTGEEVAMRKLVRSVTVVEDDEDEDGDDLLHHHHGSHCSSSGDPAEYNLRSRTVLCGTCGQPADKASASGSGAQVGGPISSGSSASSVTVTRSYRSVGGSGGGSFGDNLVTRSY
UniProt P35579: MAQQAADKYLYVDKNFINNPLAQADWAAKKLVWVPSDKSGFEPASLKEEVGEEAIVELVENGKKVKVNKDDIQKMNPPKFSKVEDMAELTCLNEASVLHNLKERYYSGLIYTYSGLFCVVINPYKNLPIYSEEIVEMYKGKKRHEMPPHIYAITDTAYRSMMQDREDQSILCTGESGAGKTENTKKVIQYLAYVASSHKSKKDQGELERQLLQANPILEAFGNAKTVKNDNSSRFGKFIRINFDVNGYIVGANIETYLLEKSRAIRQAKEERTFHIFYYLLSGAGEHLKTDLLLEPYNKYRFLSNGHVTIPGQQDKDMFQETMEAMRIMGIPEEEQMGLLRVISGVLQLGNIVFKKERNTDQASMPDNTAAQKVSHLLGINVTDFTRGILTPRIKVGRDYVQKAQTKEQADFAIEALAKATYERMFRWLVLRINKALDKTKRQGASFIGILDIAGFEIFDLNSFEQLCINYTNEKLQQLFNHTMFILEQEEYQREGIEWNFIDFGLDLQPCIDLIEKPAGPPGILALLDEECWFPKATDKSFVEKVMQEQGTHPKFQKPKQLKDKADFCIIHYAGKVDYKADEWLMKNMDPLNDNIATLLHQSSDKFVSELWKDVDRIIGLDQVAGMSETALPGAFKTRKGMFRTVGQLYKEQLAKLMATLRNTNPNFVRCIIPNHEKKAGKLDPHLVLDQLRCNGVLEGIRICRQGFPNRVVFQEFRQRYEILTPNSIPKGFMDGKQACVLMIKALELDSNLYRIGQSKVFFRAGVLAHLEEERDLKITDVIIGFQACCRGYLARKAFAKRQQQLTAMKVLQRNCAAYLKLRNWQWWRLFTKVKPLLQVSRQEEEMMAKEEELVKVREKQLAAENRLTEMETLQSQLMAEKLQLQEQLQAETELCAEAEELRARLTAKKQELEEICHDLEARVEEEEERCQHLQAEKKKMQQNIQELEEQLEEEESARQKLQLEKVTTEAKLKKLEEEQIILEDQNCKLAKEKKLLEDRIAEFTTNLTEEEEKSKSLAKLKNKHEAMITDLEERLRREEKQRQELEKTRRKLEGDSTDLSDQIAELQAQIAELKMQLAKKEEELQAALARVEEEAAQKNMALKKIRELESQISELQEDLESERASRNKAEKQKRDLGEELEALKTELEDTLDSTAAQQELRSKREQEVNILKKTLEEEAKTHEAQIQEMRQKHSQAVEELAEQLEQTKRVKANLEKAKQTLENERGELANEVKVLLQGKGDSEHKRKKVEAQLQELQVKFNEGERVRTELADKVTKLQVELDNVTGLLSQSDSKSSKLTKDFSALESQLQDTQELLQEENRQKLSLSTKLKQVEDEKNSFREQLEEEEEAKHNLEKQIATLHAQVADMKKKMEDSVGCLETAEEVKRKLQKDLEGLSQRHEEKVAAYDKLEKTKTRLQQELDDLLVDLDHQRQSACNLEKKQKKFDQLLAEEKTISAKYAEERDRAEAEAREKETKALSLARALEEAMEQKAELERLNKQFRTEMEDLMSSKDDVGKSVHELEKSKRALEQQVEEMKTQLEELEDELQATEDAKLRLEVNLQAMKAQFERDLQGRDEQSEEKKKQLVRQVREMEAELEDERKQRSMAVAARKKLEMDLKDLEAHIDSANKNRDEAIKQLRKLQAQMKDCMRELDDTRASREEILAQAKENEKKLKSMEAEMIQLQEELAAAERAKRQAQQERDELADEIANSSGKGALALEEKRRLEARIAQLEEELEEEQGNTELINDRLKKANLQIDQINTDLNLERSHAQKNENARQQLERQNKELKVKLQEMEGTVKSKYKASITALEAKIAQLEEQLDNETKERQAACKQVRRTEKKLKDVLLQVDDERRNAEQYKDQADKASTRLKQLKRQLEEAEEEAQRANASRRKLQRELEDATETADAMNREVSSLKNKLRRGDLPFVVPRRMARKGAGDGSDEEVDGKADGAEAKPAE
UniProt P08670: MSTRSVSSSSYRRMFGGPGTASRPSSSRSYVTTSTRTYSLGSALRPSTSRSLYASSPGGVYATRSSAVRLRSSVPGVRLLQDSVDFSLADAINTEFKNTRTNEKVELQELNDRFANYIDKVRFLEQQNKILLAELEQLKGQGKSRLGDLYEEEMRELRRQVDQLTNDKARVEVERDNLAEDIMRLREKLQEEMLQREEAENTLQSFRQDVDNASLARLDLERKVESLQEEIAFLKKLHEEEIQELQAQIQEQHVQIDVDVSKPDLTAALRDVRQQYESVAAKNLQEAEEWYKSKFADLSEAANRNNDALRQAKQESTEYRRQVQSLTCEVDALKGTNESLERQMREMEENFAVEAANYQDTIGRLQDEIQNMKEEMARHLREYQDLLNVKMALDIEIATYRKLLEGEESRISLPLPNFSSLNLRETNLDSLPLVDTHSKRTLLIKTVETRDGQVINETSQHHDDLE

B1: CPSM (protein, UniProt P31327 39-1500)
chain: LSVKAQTAHIVLEDGTKMKGYSFGHPSSVAGEVVFNTGLGGYPEAITDPAYKGQILTMANPIIGNGGAPDTTALDELGLSKYLESNGIKVSGLLVLDYSKDYNHWLATKSLGQWLQEEKVPAIYGVDTRMLTKIIRDKGTMLGKIEFEGQPVDFVDPNKQNLIAEVSTKDVKVYGKGNPTKVVAVDCGIKNNVIRLLVKRGAEVHLVPWNHDFTKMEYDGILIAGGPGNPALAEPLIQNVRKILESDRKEPLFGISTGNLITGLAAGAKTYKMSMANRGQNQPVLNITNKQAFITAQNHGYALDNTLPAGWKPLFVNVNDQTNEGIMHESKPFFAVQFHPEVTPGPIDTEYLFDSFFSLIKKGKATTITSVLPKPALVASRVEVSKVLILGSGGLSIGQAGEFDYSGSQAVKAMKEENVKTVLMNPNIASVQTNEVGLKQADTVYFLPITPQFVTEVIKAEQPDGLILGMGGQTALNCGVELFKRGVLKEYGVKVLGTSVESIMATEDRQLFSDKLNEINEKIAPSFAVESIEDALKAADTIGYPVMIRSAYALGGLGSGICPNRETLMDLSTKAFAMTNQILVEKSVTGWKEIEYEVVRDADDNCVTVCNMENVDAMGVHTGDSVVVAPAQTLSNAEFQMLRRTSINVVRHLGIVGECNIQFALHPTSMEYCIIEVNARLSRSSALASKATGYPLAFIAAKIALGIPLPEIKNVVSGKTSACFEPSLDYMVTKIPRWDLDRFHGTSSRIGSSMKSVGEVMAIGRTFEESFQKALRMCHPSIEGFTPRLPMNKEWPSNLDLRKELSEPSSTRIYAIAKAIDDNMSLDEIEKLTYIDKWFLYKMRDILNMEKTLKGLNSESMTEETLKRAKEIGFSDKQISKCLGLTEAQTRELRLKKNIHPWVKQIDTLAAEYPSVTNYLYVTYNGQEHDVNFDDHGMMVLGCGPYHIGSSVEFDWCAVSSIRTLRQLGKKTVVVNCNPETVSTDFDECDKLYFEELSLERILDIYHQEACGGCIISVGGQIPNNLAVPLYKNGVKIMGTSPLQIDRAEDRSIFSAVLDELKVAQAPWKAVNTLNEALEFAKSVDYPCLLRPSYVLSGSAMNVVFSEDEMKKFLEEATRVSQEHPVVLTKFVEGAREVEMDAVGKDGRVISHAISEHVEDAGVHSGDATLMLPTQTISQGAIEKVKDATRKIAKAFAISGPFNVQFLVKGNDVLVIECNLRASRSFPFVSKTLGVDFIDVATKVMIGENVDEKHLPTLDHPIIPADYVAIKAPMFSWPRLRDADPILRCEMASTGEVACFGEGIHTAFLKAMLSTGFKIPQKGILIGIQQSFRPRFLGVAEQLHNEGFKLFATEATSDWLNANNVPATPVAWPSQEGQNPSLSSIRKLIRDGSIDLVINLPNNNTKFVHDNYVIRRTAVDSGIPLLTNFQVTKLFAEAVQKSRKVDSKSLFHYRQYSAGKAA
B2: ANXA6 (protein, UniProt P08133 1-673)
chain: MAKPAQGAKYRGSIHDFPGFDPNQDAEALYTAMKGFGSDKEAILDIITSRSNRQRQEVCQSYKSLYGKDLIADLKYELTGKFERLIVGLMRPPAYCDAKEIKDAISGIGTDEKCLIEILASRTNEQMHQLVAAYKDAYERDLEADIIGDTSGHFQKMLVVLLQGTREEDDVVSEDLVQQDVQDLYEAGELKWGTDEAQFIYILGNRSKQHLRLVFDEYLKTTGKPIEASIRGELSGDFEKLMLAVVKCIRSTPEYFAERLFKAMKGLGTRDNTLIRIMVSRSELDMLDIREIFRTKYEKSLYSMIKNDTSGEYKKTLLKLSGGDDDAAGQFFPEAAQVAYQMWELSAVARVELKGTVRPANDFNPDADAKALRKAMKGLGTDEDTIIDIITHRSNVQRQQIRQTFKSHFGRDLMTDLKSEISGDLARLILGLMMPPAHYDAKQLKKAMEGAGTDEKALIEILATRTNAEIRAINEAYKEDYHKSLEDALSSDTSGHFRRILISLATGHREEGGENLDQAREDAQVAAEILEIADTPSGDKTSLETRFMTILCTRSYPHLRRVFQEFIKMTNYDVEHTIKKEMSGDVRDAFVAIVQSVKNKPLFFADKLYKSMKGAGTDEKTLTRIMVSRSEIDLLNIRREFIEKYDKSLHQAIEGDTSGDFLKALLALCGGED

The molecules below were run against β2-adrenergic receptor (human (endogenous in HCC tissue and SMMC-7721)) (UniProt P07550) (assay: affinity purification with mass spectrometry; immunoprecipitation-mass spectrometry (IP-MS) of β2-AR from HCC tissues).

binding, binds:
FLNA (from UniProt P21333 1-2647)
HS90A (from UniProt P07900 1-732)
LMNA (from UniProt P02545 1-646)
MYH9 (from UniProt P35579 1-1960)
VIME (from UniProt P08670 1-466)
B1
B2

These are yes or no findings as the source states them, for the method shown. In cells and extracts the contact can be indirect. Here binding means that the protein was enriched with, or labelled near, the bait; the list need not be complete.
